No constants are given. Whether binding was seen depends on the method and setting. Tags and fused reporters may be left off the sequences shown.
Target: decoration protein pb10 of bacteriophage T5, full-length, fused to a C-terminal histidine tag (bacteriophage T5) (UniProt Q6QGD6)
Assay: SEC-MALS; SEC-MALLS of pb10 fused to a C-terminal histidine tag; single peak corresponding to 17 kDa; both purified

B1: decoration protein pb10 of bacteriophage T5, full-length, fused to a C-terminal histidine tag (natural protein, UniProt Q6QGD6 1-164, looked up)
chain: MIDYSGLRTIFGEKLPESHIFFATVAAHKYVPSYAFLRRELGLSSAHTNRKVWKKFVEAYGKAIPPAPPAPPLTLSKDLTASMSVEEGAALTLSVTATGGTGPYTYAWTKDGSPIPDASGATYTKPTAAAEDAGSYKVTVTDSKQVSKDSTTCAVTVNPTVPGG
notes: decoration protein pb10 of bacteriophage T5, 164 amino acids, GenBank AAU05286; Monomer by SEC-MALLS (17 kDa); 18.3 kDa with the His tag; also called pb10-His; His-tagged pb10; source: pET28b expression vector, purified (expression and purification detailed in SI); not shown: His-Tag, C-terminal, kept
- binding: no binding

From PMC5292684, “High affinity anchoring of the decoration protein pb10 onto the bacteriophage T5 capsid” (Scientific Reports, 2017)
